Measured values taken from PMC8758767.

Experiments:
Nrf2 [1] = biological target: T1, Nrf2 (UniProt Q16236); assay: EMSA; settings: 10 ug nuclear extract, 100,000 cpm 32P probe, 4% polyacrylamide gel; supershift with 2 ug antibody at 4 C for 2 h; salt and pH not given; protein in an extract; label: 5'-32P
T1 sequence (looked up, limits assumed): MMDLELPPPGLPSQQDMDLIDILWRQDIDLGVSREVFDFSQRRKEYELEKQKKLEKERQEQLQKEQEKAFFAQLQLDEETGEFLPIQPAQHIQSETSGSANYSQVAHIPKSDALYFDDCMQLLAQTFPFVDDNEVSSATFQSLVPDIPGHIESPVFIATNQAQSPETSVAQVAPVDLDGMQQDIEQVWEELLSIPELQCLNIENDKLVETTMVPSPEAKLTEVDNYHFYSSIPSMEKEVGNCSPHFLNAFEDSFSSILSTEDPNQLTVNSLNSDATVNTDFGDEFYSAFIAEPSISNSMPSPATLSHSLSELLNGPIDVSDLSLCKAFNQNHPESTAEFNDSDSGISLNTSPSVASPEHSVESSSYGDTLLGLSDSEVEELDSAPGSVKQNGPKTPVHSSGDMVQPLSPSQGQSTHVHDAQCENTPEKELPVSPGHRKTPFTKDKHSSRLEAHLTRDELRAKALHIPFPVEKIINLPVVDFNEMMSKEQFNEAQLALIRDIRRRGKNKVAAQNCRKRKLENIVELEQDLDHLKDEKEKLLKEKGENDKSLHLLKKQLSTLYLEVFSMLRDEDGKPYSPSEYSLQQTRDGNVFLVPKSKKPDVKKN

Nrf2 [2] = biological target: T1, Nrf2; assay: EMSA supershift; settings: anti-Nrf2 antibody, self-competed by cold ARE1; 10 ug nuclear extract, 100,000 cpm 32P probe, 4% polyacrylamide gel; supershift with 2 ug antibody at 4 C for 2 h; salt and pH not given; protein in an extract; label: 5'-32P

## CTAGGCGTGAGAGATCAGCCTGTAATCACA (double strand) [HBXIP ARE1mut]
Nrf2 [1]
  binding result: no binding

## CTAGGCGTGGTGACTCAGCCTGTAATCACA (double strand) [HBXIP ARE1]
Nrf2 [2]
  binding result: binds

## GACTAAGCCATGATAGTGCCACTGCACTCC (double strand) [HBXIP ARE2]
Nrf2 [1]
  binding result: no binding

## GCAGTGAGCTGAGACGGCGCCACTGCACTC (double strand) [HBXIP ARE3]
Nrf2 [1]
  binding result: no binding

For at least one entry, the source does not settle the construct or the ends of the probe. Results from cells or extracts need not show a direct contact. For some of these results: No signal at the amounts used counts as a negative. For some of these results: At least one verdict was read from the data and is not stated in words by the source. Protein sequences can lack the tags named with them.
